Results reported in patent US8846351B2, “Compositions for enhancing hydroysis of cellulosic material by cellulolytic enzyme compositions” (Novozymes, Inc., priority 2010, dated 2014).
Read-outs that look alike come from different tables or passages of the source. At least one structure is not confirmed: it was looked up by name or label, or the drawing left a doubt. Some results were stated once for a whole list of compounds, not compound by compound.

Test system: Trichoderma reesei cellulase composition
Type: biochemical
Settings: AVICEL, 1 mM organic compound
Experimental: Microcrystalline cellulose was used as the source of cellulosic material.
The concentration of each organic compound was 1 mM.

[1] = time not specified (FIG. 1: 3 and 7 days)

Row | Structure (SMILES) | organic compound effect(no GH61) (pH 5.0, 50° C., 3 days) | organic compound effect(no GH61) (pH 5.0, 50° C., 7 days) | organic compound effect(no GH61) [1]
1 | O=C1O[C@H]([C@@H](O)CO)C(O)=C1O [ascorbate] | 0.952±0.0211 | 0.865±0.00792 | –
2 | CCCCC(C)C(=O)O (stereo not shown) [2-methyl hexanoic acid] | – | – | less than 1
3 | CCC(C)CCC(=O)O (stereo not shown) [4-methyl hexanoic acid] | – | – | less than 1
